± gives the standard deviation of the averaged measurements. The effect of the compound repeats well; differences between the knockouts mostly do not.
Tested on: HCC-38
Assay: relative cell number vs DMSO control (72 h) (% of DMSO); higher = less growth inhibition (more cells)
Procedure: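 QMAP-Seq: a pool of 5 breast cancer cell lines (ZR-75-1, SKBR3, HCC-38, MDA-MB-231, BT-20), each carrying 12 doxycycline-inducible Cas9 sgRNA perturbations (11 knockouts plus non-targeting sgNT), was treated with compounds for 72 h at four 10-fold doses (10 nM-10 uM or 1 nM-1 uM range). Barcodes were amplified and sequenced, and cell number was interpolated from 293T spike-in standard curves. The result is expressed as % of the median of DMSO wells. Two biological replicates.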

[1] = sgRNA knockout: sgATF3, 1000 nM
[2] = sgRNA knockout: sgATF3, 10000 nM
[3] = sgRNA knockout: sgATF4, 1000 nM
[4] = sgRNA knockout: sgATF4, 10000 nM
[5] = sgRNA knockout: sgATF6, 1000 nM
[6] = sgRNA knockout: sgATF6, 10000 nM
[7] = sgRNA knockout: sgATG7, 1000 nM
[8] = sgRNA knockout: sgATG7, 10000 nM
[9] = sgRNA knockout: sgERN1, 1000 nM
[10] = sgRNA knockout: sgERN1, 10000 nM
[11] = sgRNA knockout: sgHSF1, 1000 nM
[12] = sgRNA knockout: sgHSF1, 10000 nM
[13] = sgRNA knockout: sgHSF2, 1000 nM
[14] = sgRNA knockout: sgHSF2, 10000 nM
[15] = sgRNA knockout: sgKEAP1, 100 nM
[16] = sgRNA knockout: sgKEAP1, 1000 nM
[17] = sgRNA knockout: sgKEAP1, 10000 nM
[18] = sgRNA knockout: sgNFE2L2, 10 nM
[19] = sgRNA knockout: sgNFE2L2, 100 nM
[20] = sgRNA knockout: sgNFE2L2, 1000 nM
[21] = sgRNA knockout: sgNFE2L2, 10000 nM
[22] = sgRNA knockout: sgSLC35F2, 10 nM
[23] = sgRNA knockout: sgSLC35F2, 100 nM
[24] = sgRNA knockout: sgSLC35F2, 1000 nM
[25] = sgRNA knockout: sgSLC35F2, 10000 nM
[26] = sgRNA knockout: sgXBP1, 1000 nM
[27] = sgRNA knockout: sgXBP1, 10000 nM

In the case of CC/C(=C(\c1ccc(O)cc1)c1ccc(OCCN(C)C)cc1)c1ccccc1 [4-Hydroxytamoxifen], the relative cell number (sgRNA knockout: sgATF3, 10 nM) is reported as 90.2 ± 2.1, the relative cell number (sgRNA knockout: sgATF3, 100 nM) is reported as 91.3 ± 13 and the relative cell number [1] is reported as 88.1 ± 4. For the same molecule, the relative cell number [2] was 76.5 ± 1.2, the relative cell number (sgRNA knockout: sgATF4, 10 nM) was 93.3 ± 14 and the relative cell number (sgRNA knockout: sgATF4, 100 nM) was 101 ± 11. The relative cell number [3] was 91.9 ± 17, the relative cell number [4] was 79.7 ± 5.4 and the relative cell number (sgRNA knockout: sgATF6, 10 nM) was 97.3 ± 6.8. The relative cell number (sgRNA knockout: sgATF6, 100 nM) was 95.5 ± 14, the relative cell number [5] was 96.1 ± 9.9 and the relative cell number [6] was 69.6 ± 1.1. The relative cell number (sgRNA knockout: sgATG7, 10 nM) was 99.6 ± 2.3, the relative cell number (sgRNA knockout: sgATG7, 100 nM) was 98.7 ± 12 and the relative cell number [7] was 91.6 ± 15. For the same molecule, the relative cell number [8] was 81 ± 11, the relative cell number (sgRNA knockout: sgERN1, 10 nM) was 103 ± 4.7 and the relative cell number (sgRNA knockout: sgERN1, 100 nM) was 98.3 ± 9.7. For the same molecule, the relative cell number [9] was 91.9 ± 12, the relative cell number [10] was 83.2 ± 3.4 and the relative cell number (sgRNA knockout: sgHSF1, 10 nM) was 93.3 ± 5. The relative cell number (sgRNA knockout: sgHSF1, 100 nM) was 90.9 ± 3.2, the relative cell number [11] was 108 ± 3.2 and the relative cell number [12] was 81.4 ± 9. The relative cell number (sgRNA knockout: sgHSF2, 10 nM) was 98.2 ± 4, the relative cell number (sgRNA knockout: sgHSF2, 100 nM) was 100 ± 3.7 and the relative cell number [13] was 91.6 ± 10. It also gave a relative cell number [14] of 82.2 ± 9.5, a relative cell number (sgRNA knockout: sgKEAP1, 10 nM) of 106 ± 13 and a relative cell number [15] of 110 ± 14. It also gave a relative cell number [16] of 99.1 ± 7.8, a relative cell number [17] of 61.3 ± 13 and a relative cell number [18] of 93.7 ± 12. For the same molecule, the relative cell number [19] was 92.6 ± 6.2, the relative cell number [20] was 90.8 ± 25 and the relative cell number [21] was 78.9 ± 3. It also gave a relative cell number [22] of 101 ± 7.5, a relative cell number [23] of 94.3 ± 17 and a relative cell number [24] of 85.7 ± 9.2. The relative cell number [25] was 83.2 ± 13, the relative cell number (sgRNA knockout: sgXBP1, 10 nM) was 95.2 ± 5.4 and the relative cell number (sgRNA knockout: sgXBP1, 100 nM) was 94.2 ± 8.1. It also gave a relative cell number [26] of 92.3 ± 12 and a relative cell number [27] of 82.6 ± 5.6.
In the case of S=c1nc[nH]c2nc[nH]c12 [6-Mercaptopurine], the relative cell number (sgRNA knockout: sgATF3, 10 nM) is reported as 93.8 ± 5.5, the relative cell number (sgRNA knockout: sgATF3, 100 nM) is reported as 97.2 ± 3.4 and the relative cell number [1] is reported as 83.2 ± 4.8. For the same molecule, the relative cell number [2] was 68 ± 3.4, the relative cell number (sgRNA knockout: sgATF4, 10 nM) was 86.8 ± 2.5 and the relative cell number (sgRNA knockout: sgATF4, 100 nM) was 113 ± 17. The relative cell number [3] was 82.7 ± 7.4, the relative cell number [4] was 63.2 ± 7.3 and the relative cell number (sgRNA knockout: sgATF6, 10 nM) was 109 ± 12. For the same molecule, the relative cell number (sgRNA knockout: sgATF6, 100 nM) was 80.4 ± 12, the relative cell number [5] was 91.6 ± 5.6 and the relative cell number [6] was 68 ± 1.6. It also gave a relative cell number (sgRNA knockout: sgATG7, 10 nM) of 94.2 ± 1.7, a relative cell number (sgRNA knockout: sgATG7, 100 nM) of 98.6 ± 2.8 and a relative cell number [7] of 83 ± 5.3. It also gave a relative cell number [8] of 63.4 ± 1.4, a relative cell number (sgRNA knockout: sgERN1, 10 nM) of 102 ± 14 and a relative cell number (sgRNA knockout: sgERN1, 100 nM) of 98.91 ± 0.14. The relative cell number [9] was 79.8 ± 6, the relative cell number [10] was 70.4 ± 2.8 and the relative cell number (sgRNA knockout: sgHSF1, 10 nM) was 114 ± 17. It also gave a relative cell number (sgRNA knockout: sgHSF1, 100 nM) of 94.4 ± 7, a relative cell number [11] of 82.8 ± 11 and a relative cell number [12] of 87.3 ± 3.3. The relative cell number (sgRNA knockout: sgHSF2, 10 nM) was 101 ± 19, the relative cell number (sgRNA knockout: sgHSF2, 100 nM) was 103 ± 10 and the relative cell number [13] was 91.2 ± 3.6. It also gave a relative cell number [14] of 80.4 ± 8.1, a relative cell number (sgRNA knockout: sgKEAP1, 10 nM) of 103 ± 22 and a relative cell number [15] of 85.6 ± 10. The relative cell number [16] was 77.7 ± 14, the relative cell number [17] was 77 ± 27 and the relative cell number [18] was 88.17 ± 0.87. For the same molecule, the relative cell number [19] was 89.2 ± 3.5, the relative cell number [20] was 83.1 ± 7.3 and the relative cell number [21] was 66.1 ± 2.9. The relative cell number [22] was 95.6 ± 5.1, the relative cell number [23] was 101 ± 7.8 and the relative cell number [24] was 83.6 ± 3.1. It also gave a relative cell number [25] of 66.2 ± 3.9, a relative cell number (sgRNA knockout: sgXBP1, 10 nM) of 89.9 ± 6.9 and a relative cell number (sgRNA knockout: sgXBP1, 100 nM) of 93.7 ± 2.7. It also gave a relative cell number [26] of 83 ± 5.5 and a relative cell number [27] of 69.2 ± 3.5.
